Data reported in PMC7819943, “Rice protein-binding microarrays: a tool to detect cis-acting elements near promoter regions in rice”.
Some of the results follow.

Amino acid sequences for entries named in this document (tags omitted).
UniProt Q0JBA9, entry or part of it: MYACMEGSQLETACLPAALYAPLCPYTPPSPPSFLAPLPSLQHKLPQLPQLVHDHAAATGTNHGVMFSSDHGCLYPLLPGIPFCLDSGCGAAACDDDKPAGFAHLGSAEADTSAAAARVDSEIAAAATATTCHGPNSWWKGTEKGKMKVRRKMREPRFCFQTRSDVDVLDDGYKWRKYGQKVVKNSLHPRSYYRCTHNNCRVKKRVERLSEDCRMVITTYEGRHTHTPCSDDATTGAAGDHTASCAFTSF

target: OsWRKY34 (Oryza sativa, UniProt Q0JBA9 1-250); test: protein-binding microarray (RPBM); PBS, 2% BSA, 51.3 ng/ul salmon testes DNA, 50 uM zinc acetate, 200 nM TF, 25 C, 1 h; high values mean tight binding; details: protein: recombinant; tags: N-terminal polyhistidine and DsRed monomer fusion (pET32a); label: CyDye5-dUTP incorporated in the synthesized complementary strand; 3' TTTTT single-stranded linker to array surface; dsDNA, one strand shown
How it was run: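 In PBS with 2% BSA, salmon testes DNA and 50 µM zinc acetate, 200 nM protein was incubated on a custom Agilent array at 25 °C for 1 h and then washed off. The array had been made double-stranded by primer extension with Cy5-dUTP and blocked with 2% BSA. The proteins were transcription factors fused N-terminally to polyhistidine and DsRed, expressed in E. coli BL21-CodonPlus and purified on Ni–NTA. The binding signal is per-feature fluorescence intensity (arbitrary units) from an Axon 4000B scanner.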

| Sequence | binding signal |
| --- | --- |
| AAGTTTTTGGGTAGTGCTTTTGCGCGCTTTCTCTTGGCTGCGGAGTCACCTAGTGCAG | 8150 fluorescence intensity (a.u.) |
| ATAGTTTGCATTTTTGTTTTCTTCCTAGCTTAACTAAACTCGGAGTCACCTAGTGCAG | 9860 fluorescence intensity (a.u.) |
| CTTTTTTGTTGTTCTTTGTGTTGATTTCTTCCTCTGCGAGCGGAGTCACCTAGTGCAG | 10600 fluorescence intensity (a.u.) |
| AATCGTCACACATATGCGCTCGGATTTTTTTCTTTCTAACCGGAGTCACCTAGTGCAG | 10200 fluorescence intensity (a.u.) |
| TCTATCTTTGACTTGGAAGACAGCTCACTAATACTACCTTCGGAGTCACCTAGTGCAG | 9400 fluorescence intensity (a.u.) |
| TTCCCAATATTAATTTGTCCGTTATGATTTCTGTTGCGTTCGGAGTCACCTAGTGCAG | 11600 fluorescence intensity (a.u.) |
| GTCGGGTTGCCACACCTCTTCGACTTGCACAACATCGATCCGGAGTCACCTAGTGCAG | 9350 fluorescence intensity (a.u.) |
| AAGAACCCACCACCTCCGCCGCCTCCGCTTCCGCCGCCGGCGGAGTCACCTAGTGCAG | 11500 fluorescence intensity (a.u.) |
| TTATCATTTTTTCTTATTTACTCTCTTCGTTCTATATTAACGGAGTCACCTAGTGCAG | 11000 fluorescence intensity (a.u.) |
| TACCTGGGCTGTTCTTGTTGCTTAGTTGGGTTAGATTATTCGGAGTCACCTAGTGCAG | 10000 fluorescence intensity (a.u.) |
| TTTTCTCCTTTCGCGTTGCGTCCGCGATCCGATCGATCGACGGAGTCACCTAGTGCAG | 9560 fluorescence intensity (a.u.) |
| TCAAGATGATATGGGTCGCCCCTTCTTTTTGCGCCAAAGACGGAGTCACCTAGTGCAG | 9020 fluorescence intensity (a.u.) |
| AGTTTTTGCTTGTAACGTTTCACCACTCGTCTTATTCAAACGGAGTCACCTAGTGCAG | 8340 fluorescence intensity (a.u.) |
| CTTCGATTCTGTGAGTTTATATTTGATTTTCTGTCTTTTCCGGAGTCACCTAGTGCAG | 8610 fluorescence intensity (a.u.) |
| GATACTGTAATTACCACTGTGTATTTTGTTTTGTTTGTGTCGGAGTCACCTAGTGCAG | 14800 fluorescence intensity (a.u.) |
| ACACTCACCGACGCGTGGGCCCCAATCACTCCCGCACATCCGGAGTCACCTAGTGCAG | 10100 fluorescence intensity (a.u.) |
| TTATTAAGTTTGTTTCGTGTAAATTTTTTTTTCTTAGAATCGGAGTCACCTAGTGCAG | 8240 fluorescence intensity (a.u.) |
| ATTTTTTCTTCATTTTTCATTCCGTTGAGATCAGCACTTTCGGAGTCACCTAGTGCAG | 8300 fluorescence intensity (a.u.) |
| CCCCACTTGCTCCACCATAGCCTTTTAGCCTCTCTTCTTTCGGAGTCACCTAGTGCAG | 9790 fluorescence intensity (a.u.) |
| CGCCCAAGCTAGCTAGTGGCCATTATCCCATGGATATTTCCGGAGTCACCTAGTGCAG | 8280 fluorescence intensity (a.u.) |
| ATAAAAACCTCGCGATTTCTCTCTCTCTCTCTCCCGTCTCCGGAGTCACCTAGTGCAG | 8130 fluorescence intensity (a.u.) |

| Sequence | binding signal |
| --- | --- |
| TCTTCCCATCCGTCCACTTCCACAATGCGGCGCCTCCTCGCGGAGTCACCTAGTGCAG | 12000 fluorescence intensity (a.u.) |
| GGGCCGAACATAGGGTGGGTGCAGATGATGTCGAACTCCTCGGAGTCACCTAGTGCAG | 9560 fluorescence intensity (a.u.) |
| GTCTTATCCGATTTTAGGTTATTTTTTTCTTTTAAATTTGCGGAGTCACCTAGTGCAG | 8370 fluorescence intensity (a.u.) |
| AAACATACTGCCTCACCAGTCACAAATTGTAAACATACTACGGAGTCACCTAGTGCAG | 8160 fluorescence intensity (a.u.) |
| TTTTAGGGTGGGCTAAACAGGCCTATATTGATGTGTAATTCGGAGTCACCTAGTGCAG | 11000 fluorescence intensity (a.u.) |
| AATATGGACTCTATACTCTATTTCTAATATTCCTTATTTTCGGAGTCACCTAGTGCAG | 8840 fluorescence intensity (a.u.) |
| CGCGCCGCCGTCCCCGCCTCCGCCTCACACCGCGGCCCCTCGGAGTCACCTAGTGCAG | 9500 ± 862 fluorescence intensity (a.u.) |
| TTCACCTACGCTCATGGAGACTCTCACTATCTTTATAAGACGGAGTCACCTAGTGCAG | 8960 fluorescence intensity (a.u.) |
| TTGATCAGGTCGAGGAGGAATATCCAGCGTTAACTTATTACGGAGTCACCTAGTGCAG | 9060 fluorescence intensity (a.u.) |
| CATTCTAGCATTTTTCATATTCATATTGGTATTAATGAATCGGAGTCACCTAGTGCAG | 10800 fluorescence intensity (a.u.) |
| TTTCTCCGGTGTTATGCGTTGCGTGGTGCATTTCTTTGTTCGGAGTCACCTAGTGCAG | 8510 fluorescence intensity (a.u.) |
| CTTACCAATATTTGACAATTTCAATAGTGCTTAGTGTTTACGGAGTCACCTAGTGCAG | 8560 fluorescence intensity (a.u.) |
| ACCTATATGATTCATCCTCACTTAGTATTATTTCTCTCTTCGGAGTCACCTAGTGCAG | 9030 fluorescence intensity (a.u.) |
| CTCTCTCCCTTGATCTCTTCGCTGCGAAGCCATCTTCTTCCGGAGTCACCTAGTGCAG | 9920 fluorescence intensity (a.u.) |
| CAACATCCACCTGTTTCTATCCCAACCATTCTTACCAACACGGAGTCACCTAGTGCAG | 10500 fluorescence intensity (a.u.) |
| CATGCGCGCGCATTGCGCCTTCTGCCTTTCAGGCTTTCACCGGAGTCACCTAGTGCAG | 9210 fluorescence intensity (a.u.) |
| GCGGCCACCCGCCTCGCCATCGCCAACCTCTCCACGCGTCCGGAGTCACCTAGTGCAG | 8600 fluorescence intensity (a.u.) |
| TCCTGCAAAATCCTCGCGCTGATCAGCTGATTTTTTTTTCCGGAGTCACCTAGTGCAG | 8520 fluorescence intensity (a.u.) |
| GTCGTCGCGCTACTTCCCGGCGGCGTCGTGGGGCGGGCTGCGGAGTCACCTAGTGCAG | 8030 fluorescence intensity (a.u.) |
| CTCTACCACGCTGTCACGGTGCTAAAATCCCGGAAACCCACGGAGTCACCTAGTGCAG | 8880 fluorescence intensity (a.u.) |
| CCCTGATTTATGTGCAAAAACTACTTTAAACTGTTTTTTCCGGAGTCACCTAGTGCAG | 8370 fluorescence intensity (a.u.) |

Two entries from above, reformatted:
Sequence	binding signal
CTTTTTTGTTGTTCTTTGTGTTGATTTCTTCCTCTGCGAGCGGAGTCACCTAGTGCAG	10600 fluorescence intensity (a.u.)
GGGCCGAACATAGGGTGGGTGCAGATGATGTCGAACTCCTCGGAGTCACCTAGTGCAG	9560 fluorescence intensity (a.u.)
